According to PMC10163288:
This is one part of the list.

B1: il10ra_site1_normal_mot_HHH_b1_08477_000000091_0001_40_57_H_._HHH_b1_07800_0001_0000400015_0000001_0_af2pred_0001 (protein)
chain: SSSSDDIERRVELAIRFAEFLAEQGDPEAARLLIRAALQIAKKNNNEELEEKLQELLEELESSSS
B2: il10ra_site1_normal_mot_HHH_b2_08287_af2_000000247_0001_1_16_H_._HHH_b2_07820_0001_0000300057_0000001_0_af2pred_0001 (protein)
chain: SSSSDEEEEEVKELLEEAKRIDDPRERTRVLVEAYALAFELNNPELEELVKEVAIELLERSSSSS
B3: il10ra_site1_normal_mot_HHH_b2_00475_000000107_0001_44_57_H_._HHH_b1_00662_0001_0000100003_0000001_0 (protein)
chain: SSSSSIEERIVQLLFRALRLHAEGNPEEAERLIEEAEQLAEELGDPELEEYIRILKHFVKSSSSS
B4: il10ra_site1_normal_mot_HHH_b2_00277_af2_000000172_0001_1_17_H_._HHH_b1_05106_af2_0001_0000800024_0000002_0_af2pred_0001 (protein)
chain: SSSSSEERVEELLKELEKLVEEGDEEEFRRVLIEAALLAARLKDNELSIIIIRLFSLFHRSSSSS
B5: il10ra_site1_sap_17_mot_HHH_b2_06979_000000158_0001_42_57_H_._HHH_b2_05702_af2_0001_0000600046_0000002_0_0001 (protein)
chain: SSSSDEAYRAVEKAIEEALKLWRNGNPEEAQELIEEVIKELRELGNWAAVWSAEHALRVLRSSSS
B6: il10ra_site1_normal_mot_HHH_b2_00622_af2_000000153_0001_40_57_H_._HHH_b2_07019_0001_0000200036_0000001_0 (protein)
chain: SSSSSEAERSLRRLIHAAEFLIKQGDPEAARRTLRFAAALARDAGNPELLEEIRELLEELGSSSS
B7: il10ra_site1_normal_mot_HHH_b2_00475_000000107_0001_44_57_H_._HHH_b1_03395_0001_0000200011_0000001_0 (protein)
chain: SSSSDLAERVSQLLIRAIRLLAEGDEEEARELVEEAKELAEEHNDEELLKYIEIVEHFVNSSSSS
B8: il10ra_site1_normal_mot_HHH_b1_02131_000000111_0001_1_18_H_._HHH_b1_04628_af2_0001_0000100001_0000001_0 (protein)
chain: SSSSSDEEELEELLEELEELVKKNDFQEALEIAIRIVRLAFELSDEEVLQLAHELAQSLISSSSS
B9: il10ra_site1_normal_mot_HHH_b2_05454_000000273_0001_1_18_H_._HHH_b1_00591_af2_0001_0000100005_0000002_0 (protein)
chain: SSSSSEEEKEIEKLLEELERAIEENDPELALRLLQRILQLIFRLGNAELFREVWELAKRIASSSS
B10: il10ra_site1_normal_mot_HHH_b2_03438_af2_000000049_0001_18_34_H_._HHH_b1_00814_af2_0001_0000500053_0000001_0 (protein)
chain: SSSSDEEEEELEELLEELKELIKRGDAEEVYKLSRRIAELAHELNDQEVFRKVLELLRRFFSSSS
B11: il10ra_site1_normal_mot_HHH_b1_05937_af2_000000262_0001_20_37_H_._HHH_b2_01038_af2_0001_0000600008_0000001_0 (protein)
chain: SSSSSDEEYREEVEELLEEAEKIEDLHEVLRLLIEALRIAFKVGDDELLKLIWEVAREHSSSSSS
B12: il10ra_site1_normal_mot_HHH_b2_00441_000000147_0001_1_18_H_._HHH_b1_00591_0001_0000300010_0000002_0_af2pred_0001 (protein)
chain: SSSSSHAEELIELALRALRFAIELNDPERAKLAIKDIKLDIKDEGNEELQEIVEELERRIHSSSS
B13: il10ra_site1_sap_18_mot_HHH_b1_08411_af2_000000053_0001_1_20_H_._HHH_b1_05631_0001_0000100005_0000002_0_0001_af2pred_0001 (protein)
chain: SSSSDEEERLEELLERIEELIERGDPEEAAKVLFEAIKLAAELNDEESLKLLLELLKRIFSSSSS
B14: il10ra_site1_normal_mot_HHH_b1_00999_000000080_0001_41_55_H_._HHH_b1_02494_af2_0001_0000100011_0000001_0 (protein)
chain: SSSSDELEELIEEIEELIEEGNLEEAQELIQEAVRHAFRLKDEEALQRLWELAKLVGELLSSSSS
B15: il10ra_site1_normal_mot_HHH_b1_05056_000000217_0001_1_20_H_._HHH_b2_02752_0001_0000200015_0000001_0 (protein)
chain: SSSSDLEEELEELLRELEELIREGDREKFLRLVQEIIRLAFRTGDPEVLQKLWELVREFASSSSS
B16: il10ra_site1_sap_28_mot_0f4c98a20d629a3dc592d0b946cdb135_0001_1_000000277_0001_1_13_H_._HHH_b1_08444_af2_0001_0000400017_0000001_0_0001_af2pred_dldesign_0_af2pr … (protein)
chain: SSSSSPEEEALEKQLDYIRWLIEEGALDLARRSLANAEELAKKAGNEEILKRIAALREELESSSS
B17: il10ra_site1_sap_25_mot_HHH_b1_06128_000000102_0001_1_20_H_._HHH_b1_04347_0001_0000300023_0000001_0_0001 (protein)
chain: SSSTEEVIRKAARVAQEAIRLAIQRSDQETFEQLWELFKRIIREGDPELLEELERLLEELRSSSS
B18: il10ra_site1_normal_mot_42f8b9a235e54c912819b8ab3aebd5a2_0001_af2_000000295_0001_34_48_H_._96acec432cdb841898d80330b1faeb22_0001_0001_0000400016_0000001_0_af2pr … (protein)
chain: DKEEEEIEELLEEGDEEEAKELVIRILSKVLNIPPEEAREYLERLEEKAGNPELALQMALVAVRL
B19: il10ra_site1_normal_mot_HHH_b1_04771_000000013_0001_40_56_H_._HHH_b2_03045_0001_0000300017_0000001_0 (protein)
chain: SSSSSDDELLELSLEAFRLALRGNPEEAEEVLREALKLAEELNNERALRVVRDQLRALGSSSSSS
B20: il10ra_site1_normal_mot_HHH_b1_07878_000000292_0001_1_19_H_._HHH_b2_02497_0001_0000200022_0000001_0 (protein)
chain: SSSSDEAYKIAREAAEEAARLYREGDPEEAQKLLEEALRLLEELGNFSAVFALRQFLRALVSSSS
B21: il10ra_site1_sap_28_mot_HHH_b1_02665_000000293_0001_1_18_H_._HHH_b2_00739_0001_0000400033_0000001_0_0001_af2pred_0001 (protein)
chain: SSSSSEEEIEELLRELRELVEEGDLRRLLELIREVRKLAAELNDPEALEEVLELLRRALRSSSSS
B22: il10ra_site1_normal_mot_HHH_b2_00345_af2_000000013_0001_42_56_H_._HHH_b1_04343_0001_0000600027_0000002_0 (protein)
chain: SSSDEEVIEKASEVAQEAIRLAIRRNDEETFRELWRLFKEIIREGDPELLEELERLLEELRSSSS
B23: il10ra_site1_sap_24_mot_HHH_b2_05343_000000235_0001_19_35_H_._HHH_b1_08750_af2_0001_0000700009_0000001_0_0001 (protein)
chain: SSSSDVQREVYRLSRRIAELIRDGNPEEARRLLEELEELVEEFNNWNARFLLEVLRRALEQSSSS
B24: il10ra_site1_normal_mot_HHH_b2_00984_000000042_0001_1_20_H_._HHH_b1_04652_af2_0001_0000100001_0000002_0 (protein)
chain: SSSSDEEEVEERVEELLEEAKKIEDPEELARVLAEAVRLAFELGDAELLQEIWETIKELTSSSSS

Target: il10ra, Q13651
Assay: yeast display titration

Apparent Kd, inactive:
B1 no binding seen
B2 no binding seen
B3 no binding seen
B4 > 416 nM
B5 no binding seen
B6 no binding seen
B7 no binding seen
B8 no binding seen
B9 no binding seen
B10 no binding seen
B11 no binding seen
B12 no binding seen
B13 no binding seen
B14 no binding seen
B15 no binding seen
B16 no binding seen
B17 no binding seen
B18 no binding seen
B19 no binding seen
B20 no binding seen
B21 no binding seen
B22 no binding seen
B23 no binding seen
B24 no binding seen

Quoted at random: 2 entries already listed
Apparent Kd, inactive:
B18 no binding seen
B12 no binding seen
